# Out of some 320,000 compounds screened, about 22,000 (6.9%) were called active. Inconclusive results, whose numbers are uncertain, are shown with a selection of clear calls. The call rests on the fitted dose curve; in most records, active means well fitted inhibition curve with a large enough effect; inconclusive means small, poorly fitted or top-dose-only effect, or another doubt; inactive means no such curve, though single readings can be large or run the other way. Where the call is inconclusive, the potency comes from a doubtful curve fit.
# Test: Primary qHTS for delayed death inhibitors of the malarial parasite plastid, 96 hour incubation
# Conditions: P. falciparum luciferase reporter growth; series mostly up to 28.7 µM
# Summary of the method: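 P. falciparum expressing integrated firefly luciferase grown in erythrocytes (2% hematocrit, 0.05% parasitemia final) with compounds for 96 hours at 37 C, 5% CO2. Growth inhibition read as loss of luminescence after adding luciferase detection reagent.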
# Potency means the concentration at half of the fitted maximal effect.
row,SMILES,Potency
1,O=C(O)c1cnn(-c2nc(-c3cccc([N+](=O)[O-])c3)cs2)c1C(F)(F)F,"inconclusive: 18.5 µM [inhibitor, single point]"
2,O=C(CSCc1ccc(Br)cc1)NCc1ccccn1,inactive
3,COc1ccc(CCNC(=O)c2cnc3ccccn3c2=O)cc1,"inconclusive: 20.8 µM [inhibitor, partial curve, poor fit]"
4,CCC(=Nc1ccc2c(c1)CCC2)c1c(O)n(C2CCCCC2)c(=O)[nH]c1=O,"inconclusive: 18.5 µM [inhibitor, single point]"
5,Cc1nc(SC2C=CS(=O)(=O)C2)n[nH]1 (stereo unspecified),inactive
6,CCOCCOC(=O)C1=C(C)NC(=O)NC1c1cc2c(cc1Br)OCO2 (stereo unspecified),"inconclusive: 13.1 µM [inhibitor, single point]"
7,Nc1c(C(=O)NCC2CCCO2)sc2nc3c(c(-c4ccco4)c12)CC/C3=C\c1ccco1 (stereo unspecified),"inconclusive: 18.5 µM [inhibitor, single point]"
8,CCCC(c1nnnn1C1CCCC1)N1CCN(c2ccccc2F)CC1 (stereo unspecified),"inconclusive: 10.4 µM [inhibitor, single point]"
9,O=C(Cc1ccccc1)c1ccc2c(c1)OCCO2,inactive
10,CCN(CC)C(=O)CCCSc1nnc(Nc2ccccc2F)s1,"inconclusive: 18.5 µM [inhibitor, single point]"
11,Cc1ccc(S(=O)(=O)C2CS(=O)(=O)CC2O)cc1 (stereo unspecified),"inconclusive: 11.7 µM [inhibitor, partial curve]"
12,Cc1ccc(-c2nn(CCC(N)=O)c(=O)c3ccccc23)cc1,"inconclusive: 10.4 µM [inhibitor, single point]"
13,CCCSc1nc(SCC(=O)NCc2ccccc2)c2c3c(sc2n1)COC(C)(C)C3,"inconclusive: 0.415 µM [inhibitor, full curve, poor fit]"
14,O=S(=O)(c1ccc(Cl)cc1)N1CCN=C1SCc1ccc(Cl)c(Cl)c1,"inconclusive: 18.5 µM [inhibitor, single point]"
15,CCCc1nc2ccccc2c(=O)n1/N=C/c1ccc(O)c(O)c1,"inconclusive: 18.5 µM [inhibitor, single point]"
16,Cc1ccnc2nc(C(=O)OCC(=O)Nc3ccc([N+](=O)[O-])cc3Br)nn12,inactive
17,CC(=O)Nc1ccc(S(=O)(=O)N2CCCC2)cc1,"inconclusive: 11.7 µM [inhibitor, single point]"
18,Cc1ccc(S(=O)(=O)N(C)c2ccc(C(=O)NCc3ccccc3F)cc2)cc1,"inconclusive: 18.5 µM [inhibitor, single point]"
19,Cc1ccc2[nH]c(=O)c(CN(CCc3ccccc3)C(c3nnnn3Cc3ccco3)C(C)C)cc2c1 (stereo unspecified),"inconclusive: 1.85 µM [inhibitor, full curve]"
20,Cc1ccccc1Cn1c2ccccc2c2cnn(CC(=O)NCCCN3CCN(C)CC3)c(=O)c21,"inconclusive: 11.7 µM [inhibitor, single point]"
21,CCOC(=O)N/N=C/c1cc(C)n(-c2cccc3ccccc23)c1C,active: 9.28 µM
22,COc1ccc(CN2CCN(CCc3ccccc3)C(CCO)C2)cc1Cn1cncn1 (stereo unspecified),"inconclusive: 18.5 µM [inhibitor, single point]"

row,SMILES,Potency
1,Cc1ccc(C(=O)NS(=O)(=O)c2ccc(N=NN(C)C)cc2)cc1,"inconclusive: 16.5 µM [inhibitor, single point]"
2,COc1ccc(S(=O)(=O)N2CCOCC2)cc1NC(=O)CCOc1ccc(C(C)(C)C)cc1,"inconclusive: 4.65 µM [inhibitor, partial curve, poor fit]"
3,CN(Cc1cnccn1)C(=O)C1CCC(=O)N(CCc2ccccc2)C1 (stereo unspecified),"inconclusive: 18.5 µM [inhibitor, single point]"
4,CC(=O)N(C1=C(N)C(=O)c2ccccc2C1=O)c1ccccc1,active: 9.28 µM
5,CCOC(=O)C1=C(COC(=O)COc2ccc(OCC)cc2)NC(=O)NC1C (stereo unspecified),inactive
6,Cc1ccc(C(C(=O)NC2CCCCC2)N2CCCC2)cc1 (stereo unspecified),"inconclusive: 11.7 µM [inhibitor, partial curve]"
7,CCCN1CCC(NC(=O)Cc2ccccc2C)CC1,"inconclusive: 18.5 µM [inhibitor, single point]"
8,CCn1c(=O)c(=O)[nH]c2cc(C(=O)NC(C)c3ccc(S(N)(=O)=O)cc3)ccc21 (stereo unspecified),inactive
9,O=C(NC1CC1)c1sc2cc(Cl)ccc2c1Cl,inactive
10,COc1ccccc1-c1nnc(SC(C(=O)c2c[nH]c3ccccc23)c2ccccc2)n1C (stereo unspecified),"inconclusive: 11.7 µM [inhibitor, single point]"
11,CCOC(=O)/C=C/C(=O)Nc1ccccc1C(=O)NC1CCCCC1,"inconclusive: 16.5 µM [inhibitor, partial curve, poor fit]"
12,Cc1ccc(C)c(NC(=O)C2COc3ccccc3O2)c1 (stereo unspecified),"inconclusive: 14.7 µM [inhibitor, partial curve, poor fit]"
13,Cc1ccc(Nc2nc(N)c3ccccc3n2)cc1C,"inconclusive: 5.22 µM [inhibitor, partial curve, poor fit]"
14,CCCN(CC(=O)Nc1ccc(OC)c(OC)c1)CC(=O)Nc1ccc(F)c(F)c1F,"inconclusive: 18.5 µM [inhibitor, single point]"
15,CCCCNC(=O)Nc1c(C(=O)OCC)[nH]c2ccccc12,active: 8.28 µM
16,Cc1cccc(-n2c(-c3ccco3)nc3ccccc3c2=O)c1C,"inconclusive: 18.5 µM [inhibitor, single point]"
17,Cc1ccc(C(=O)COC(=O)C2C3C=CC(C3)C2C(=O)OCC(=O)c2ccc(C)c(C)c2)cc1C (stereo unspecified),active: 1.17 µM
18,CCOc1ccc(C(=O)OCC(=O)Nc2cccc(S(=O)(=O)N3CCCC3)c2)cc1,"inconclusive: 18.5 µM [inhibitor, single point]"
19,O=C(NCc1ccc(Cl)cc1)C(=O)c1cn(CC(=O)N2CCOCC2)c2ccccc12,active: 13.1 µM
20,O=C(Cn1c(COc2ccccc2)nc2ccccc21)Nc1cc(Cl)cc(Cl)c1,"inconclusive: 10.4 µM [inhibitor, single point]"
21,C=CCn1c(SC(C)C(=O)NC2(C#N)CCCCC2)nnc1-c1ccc(OC)cc1 (stereo unspecified),"inconclusive: 18.5 µM [inhibitor, single point]"
22,COc1cccc(C2NC(CC(C)C)(C(=O)O)C3C(=O)N(Cc4ccccc4)C(=O)C23)c1O (stereo unspecified),"inconclusive: 2.08 µM [inhibitor, partial curve, poor fit]"

row,SMILES,Potency
1,Cc1ccc(Sc2cc(C)nc(-c3ccccn3)n2)cc1,"inconclusive: 1.47 µM [inhibitor, full curve]"
2,Cc1ccc(C)c(S(=O)(=O)Nc2ccc3oc(C)c(C(=O)O)c3c2)c1,"inconclusive: 7.38 µM [inhibitor, partial curve, poor fit]"
3,CCCOc1cccc(C(=O)NC(=S)Nc2cccc(C(F)(F)F)c2)c1,"inconclusive: 10.4 µM [inhibitor, partial curve]"
4,COc1cccc(NC(=O)c2ccc(-n3cnnn3)cc2)c1,active: 4.15 µM
5,O=C1CCN(Cc2ccccc2)CCN1[C@H](COc1ccccc1)c1ccccc1,"inconclusive: 5.22 µM [inhibitor, partial curve, poor fit]"
6,C=CCn1c(=NC(=O)c2cc(-c3cccs3)nc3ccccc23)sc2cc(S(N)(=O)=O)ccc21,"inconclusive: 3.7 µM [inhibitor, partial curve]"
7,CCC(Cc1ccccc1)NC(=O)Cn1ncc2ccsc2c1=O (stereo unspecified),"inconclusive: 0.0522 µM [inhibitor, full curve, poor fit]"
8,Cn1c(SCC(=O)N2CCN(S(=O)(=O)c3ccccc3)CC2)nc2ccccc21,"inconclusive: 16.5 µM [inhibitor, single point]"
9,Cc1cc(=O)oc2cc(OCC(=O)N3CCC(C(=O)O)(c4ccccc4)CC3)ccc12,"inconclusive: 10.4 µM [inhibitor, single point]"
10,COc1ccc(N2CCN(c3cc(C)c4cccc(C)c4n3)CC2)cc1,"inconclusive: 20.8 µM [inhibitor, partial curve, poor fit]"
11,CCCC(=O)n1nc(-c2ccco2)nc1SCc1ccccc1,inactive
12,O=C(c1ccc(NC2=NC3CS(=O)(=O)CC3S2)cc1)N1CCN(c2ccccc2F)CC1 (stereo unspecified),"inconclusive: 18.5 µM [inhibitor, single point]"
13,CCc1ccc(OCc2nnc(SCC(=O)Nc3cccc(C(=O)N4CCOCC4)c3)o2)cc1,"inconclusive: 9.28 µM [inhibitor, single point]"
14,CCOCCCNC(=O)CN1CCN(Cc2ccc(Cl)cc2)C1=O,inactive
15,OCC1(Cc2ccccc2C(F)(F)F)CCN(Cc2ccc3c(c2)CCO3)CC1,"inconclusive: 9.28 µM [inhibitor, single point]"
16,CCC(=O)Nc1nnc(S(=O)(=O)N(C)c2cc(C)cc(C)c2)s1,inactive
17,COc1ccc(OC)c(S(=O)(=O)N2CCC(C(=O)NC3CC3)CC2)c1,inactive
18,Cc1ccc(S(=O)(=O)NNC(=O)NC23CC4CC(CC(C4)C2)C3)cc1,inactive
19,CC(NC(=O)c1ccccc1SCC(=O)N1CCCC1)c1ccc(F)cc1 (stereo unspecified),"inconclusive: 18.5 µM [inhibitor, single point]"
20,COc1ccc(-n2nc(C(=O)NCC(=O)N3CCN(c4ccccc4OC)CC3)c3ccccc3c2=O)cc1OC,"inconclusive: 2.08 µM [inhibitor, full curve, poor fit]"
21,O=S(=O)(Nc1nc2ccccc2nc1NCC1CCCO1)c1cc(Cl)ccc1Cl (stereo unspecified),inactive
22,Cc1ccc2nc(-c3cccc(Br)c3)cc(C(=O)NC3CC3)c2c1,"inconclusive: 9.28 µM [inhibitor, single point]"

# 3 entries picked at random from those above:
row,SMILES,Potency
1,Cc1ccc(Sc2cc(C)nc(-c3ccccn3)n2)cc1,"inconclusive: 1.47 µM [inhibitor, full curve]"
15,OCC1(Cc2ccccc2C(F)(F)F)CCN(Cc2ccc3c(c2)CCO3)CC1,"inconclusive: 9.28 µM [inhibitor, single point]"
3,CCCOc1cccc(C(=O)NC(=S)Nc2cccc(C(F)(F)F)c2)c1,"inconclusive: 10.4 µM [inhibitor, partial curve]"

# Reference: PubChem BioAssay AID504834 (National Center for Advancing Translational Sciences (NCATS), 2011)
